From patent publication US20240010730A1
No constants are given. Whether binding was seen depends on the method and setting. Binding can be weak; no strength is given.

Biological target: monkey TIGIT (hybridoma screening, Table 1) (monkey)
Test: ELISA/FACS screening

binding: binds
B1: B3/29F6 (antibody, V domains shown)
VH: DVQLQESGPGLVKPSQSLSLTCTVTGYSITSDYAWIWIRQFPGNKVEWMGYITSSGSTSYNPSLKSRISFTRDTSKNQFFLQLTSVTTEDTATYYCARLDFGNYGGAMDYWGQGTSVTVSS
VL: DIVMTQSHKFMSTSIGDRVSITCKASQHVSTAVAWYQQKPGQSPKLLIYSASYRYTGVPDRFTGSRSGTDFTFTISSVQAEDLAVYYCQQHYITPYTFGGGTKLEIK
